From patent publication US20060165706A1 come the findings set out here.

Results are given in words; binding and its absence hold for the method and conditions named.

For this assay, the target named is CHO.B7.1. The experiment in a line: FACS, direct staining of CHO.B7.1 control cells with FITC-labeled murine CTLA4-26B (key in FIG. 6D).

B1: murine anti-human CTLA4 monoclonal antibody number 26 (antibody, V domains shown)
VH: QVQLKESGPGLVAPSQSLSITCTVSGFSLTSYGVYWVRQPPGKGLEWLGVIWAGGTTNYNSALMSRLSISKDNSKSQVFLKMSSLQTDDTAMYYCARGPPHAMMKRGYAMDYWGQGTSVIVSS
VL: QNVLTQSPAIMPASPGEKVTMTCSATSSITYMSWYQQKSGSSPRLLIYDTSNLASGVPVRFSGSGSGTSYSLTISRMEAEDAATYYCQQWSSYPLTFGAGTKLELK
For the molecule B1, the binding result is “no binding (tested: 125 ng)”.
